29 sequences from PubChem BioAssay AID1347423 (Functional Genomics Laboratory (NCATS/FGL), 2020) can be followed below.

Among all 52,000 sequences or so, about 210 (0.4%) were called active.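 The calls were made as follows: active = gene whose silencing raises cell survival under the drug, median off-target-corrected z-score across its silencing RNAs 2 or more; inactive = the rest.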 The list shows a part of the results.

The assay can be described thus: Resistance to Poly (ADP-Ribose) Polymerase inhibitor: Gene Identification via Genome-wide siRNA Screen. The following applies: mouse BRCA2 R2336H ES cells, olaparib, CellTiter-Glo viability; active compounds read high. An excerpt:
The role of Poly (ADP-Ribose) Polymerase (PARP) proteins in DNA repair has been elegantly utilized for the synthetic lethality-based treatment of BRCA-deficient tumors by PARP inhibitors. PARP inhibitors are now being used for treatment of BRCA-deficient breast and ovarian cancers. […] While several mechanisms of drug resistance have been identified, majority of these tumors develop drug resistance due to unknown causes. To identified novel regulators of chemo-resistance in BRCA2-mutated cells, we performed a genome wide siRNA library screen. We have found ES cells expressing a hypomorphic allele of BRCA2 to be hypersensitive to PAPP inhibitors (such as olaparib). We used ES cells expressing a mutant allele of BRCA2 that has a single amino acid substitution at position 2336 (arginine to histidine, R2336H). The screen was conducted using an Ambion (Thermo) Silencer Mouse Genome siRNA collection. The library targets 17,575 mouse genes with 3 siRNAs per gene. TET2 (E130014J05Rik) was identified as a top candidate.
Transfections were performed in 384 well plates (Corning 3707). Plates were coated with 0.1% gelatin in H2O overnight at ambient temperature. Gelatin solution was aspirated (BioTek EL406) and siRNAs were printed using a Bravo VPrep liquid handler integrated within a BioCel automation platform (Agilent). Cell viability was measured using CellTiter Glo (Promega). For transfections, […] of serum free media containing Lipofectamine RNAiMax […] was added to wells containing siRNA (0.8pmol). Lipid and siRNA were allowed to complex for 45 min at ambient temperature before addition of 1000 cells in DMEM, 30% FBS to yield final transfection mixtures containing 20 nM siRNA in DMEM, 15% FBS. PARPi (olaparib, AZD2281) was added 48 h post-transfection (500 nM) and viability (CellTiter Glo, Promega) was assayed 72 h later on a PerkinElmer Envision 2104 Multilabel plate reader. Ambion Silencer Select Negative Control #2 was incorporated on all screening plates (16 wells) and the median negative control value on each plate was used for normalization. An siRNA targeting Trp53 was used as a positive control. This control yielded a median protective effect of ~1.9 fold versus negative control throughout the screen. The median absolute deviation (MAD) based z-score was calculated for each siRNA. Genes were then ranked by taking the median value for all siRNAs tested against a given gene. Scores were also adjusted for seed-based off-target effects to help deprioritize likely false positives.
With GGUUGGAUACUCGUCUUCATT against Olfr421, the z-score is inactive: -2.
As to GGCUUUGUAGCCUAGCUAGTT against Cd81, the z-score was inactive: 1.88.
Turning to “GCUGUUUCUCUAAUAACACTT against D130011D22Rik”, the z-score was inactive: -0.935.
Regarding “GGAUACUGUGUGGUCAUGUTT against 6330516O17Rik”, the z-score is inactive: -1.83.
GGCUCACAAUUGCUGUGUATT against Psg23: the z-score was inactive: -0.2.
For the sequence ACAUGUCCUCUGUGCAUAUTT against LOC380997, the z-score is inactive: 0.938.
Turning to GGCAAAAAGGGCAUUGUCCTT against Birc1a, the z-score was inactive: -1.18.
Regarding “GGACCAGUUUGAGUAUGAGTT against 5730466P16Rik”, the z-score is inactive: -3.27.
Take GGAGACAAGCUUCUUUGAUTT against Abcb9: the z-score was inactive: 0.118.
For the sequence GGAGACAUUCACUGUCUUCTT against Ephb4, the z-score is inactive: -1.12.
Regarding GCACAAAGACUUAAACAUCTT against Egfl6, the z-score was inactive: 1.17.
Turning to CCUGUAGGAUUGUUUUGAATT against Slc39a8, the z-score is inactive: 0.398.
As to “CCAUGGUAGUUAAAAAUGUTT against 2600011C06Rik”, the z-score is inactive: -2.31.
As to CCGUGGAGUAACAAGUAUGTT against Capzb, the z-score is inactive: -0.958.
With UGGCAAGAUUGAAACCAUATT against Hnrpa3, the z-score is inactive: 1.37.
Turning to GGAUGAAGAUGAAAAGGAATT against Ube3a, the z-score was inactive: -1.25.
As for GGCAAAAAGUAUGCCUUAGTT against Pi4k2b, the figure is inactive: -1.43; as for “GGAAAGGUUUUCAUCAACATT against 1110061L23Rik”, inactive: 1.74; as for “GGCGGACAGAAAUUAUAGATT against C430013M08Rik”, inactive: -1.09.
GGCUUGUGACUACGAAAUATT against Olfr1364: the z-score is inactive: -0.178.
As for GGCUAAUGUAUCGUCUGAGTT against Asb16, the figure is active: 0.422; as for GGAUUUAUCAUAUUACUGCTT against Pop1, inactive: 0.806; as for CGAUGACUGGACACAUUUGTT against Sqstm1, inactive: -0.901.
Regarding GGGAAAACCACAAGACACUTT against Dppa4, the z-score is inactive: 1.53.
“GGCCUGUUUUUGCAUUUUATT against 9030612E09Rik”: the z-score is inactive: 0.978.
On to GCGGUCUUUACUUAGAGGGTT against Bri3, for which the z-score is inactive: 0.445.
Take GCUUACCUUGACCAACCUCTT against Chrng: the z-score is active: 1.84.
As for GGUGUACACAUAAAUAUUGTT against Prlpc1, the figure is inactive: 0.901; as for GGUGUUGGUGAACGUAAAGTT against Eif3s2, inactive: -0.728.
